Source: PubChem BioAssay AID200 (DTP/NCI, 2004)
The list shows only some results of the screen, not a fair sample: it gathers tests that were run many times, whatever their T/C, doses with no T/C, and many T/C values between a quarter and a half above the control. Further doses and runs are listed elsewhere. T/C: endpoint of the treated group in % of that of the vehicle group. Some entries give survivors of the animals treated and no T/C: the source files T/C as zero there, which appears to mark a toxic dose or a test without result, not a measured value. Some doses without a T/C left all or most animals alive at the check, yet need not have been tolerated: the source hardly ever lists a survival T/C far under the control, and the zero likely stands for such cases as well. Survivors were counted at the toxicity check, usually on the fifth day, unless a day is given; later deaths do not show. Schedule codes are those of the source, read here as Q, the interval in days (D) or hours (H), X, the number of doses. Some entries were tested several times; the results are listed from low to high. For survival time, the PubChem record calls one and a half times the control and up active, and a quarter to a half above the control has no call in these data; cut-offs in other NCI protocols can differ. Some T/C values carry the count of animals alive at the toxicity check (mostly the fifth day); without a count, all were alive then. Where a SMILES comes first, the peptide text is derived from it. [ ]: non-standard residue; d: D form. The star is where a group is joined. Nle = CCCC[CH](N)C(=O)O; Cbz = O=C(OCc1ccccc1)*

Test system: B6C3F1 mice, B16 melanoma ip, median survival T/C
Experiment: NCI In Vivo Anticancer Drug Screen. Data for tumor model B16 Melanoma (intraperitoneal) in B6C3F1 mice
Details: T/C endpoint: median survival time, higher T/C = longer survival
Procedure, shortened: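 Readout: survival or tumor size in treated mice relative to vehicle controls (T/C). Model uses transplantable tumors grown in mice.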

[1] = dose: 100.0 mg/kg/injection, schedule: Q01DX009 (ip), vehicle: saline with Tween-80
[2] = dose: 400.0 mg/kg/injection, schedule: Q01DX009 (ip), vehicle: Klucel (hydroxypropylcellulose) (HPC)
[3] = dose: 200.0 mg/kg/injection, schedule: Q01DX009 (ip), vehicle: saline with Tween-80
[4] = dose: 400.0 mg/kg/injection, schedule: Q01DX009 (ip), vehicle: saline with Tween-80
[5] = dose: 100.0 mg/kg/injection, schedule: Q01DX009 (ip), vehicle: saline
[6] = dose: 200.0 mg/kg/injection, schedule: Q01DX009 (ip), vehicle: saline
[7] = dose: 400.0 mg/kg/injection, schedule: Q01DX009 (ip), vehicle: saline

CCOC(=O)Nc1cc2c(c(N)n1)N=C(c1ccccc1)CN2 was tested, and the survivor count (dose: 10.0 mg/kg/injection, schedule: Q01DX009 (ip), vehicle: saline with Tween-80) was 1 of 10 and the survivor count (dose: 20.0 mg/kg/injection, schedule: Q01DX009 (ip), vehicle: saline with Tween-80) was 0 of 10.

In the case of C/C(=N\NC(=S)N1CC2CCC(CC2)C1)c1nccs1, the survivor count (dose: 50.0 mg/kg/injection, schedule: Q01DX009 (ip), vehicle: saline with Tween-80) is reported as 7 of 10 and the survivor count [1] is reported as 2 of 10.

O=C1CSC(c2cccs2)N1c1nncs1 (centres undefined) was tested, and the survivor count [2] was 10 of 10.

CCOC(=O)Nc1cc2c(c(N)n1)N=C(c1ccc3ccccc3c1)CN2 was tested, and the T/C (dose: 1.87 mg/kg/injection, schedule: Q01DX009 (ip), vehicle: saline with Tween-80) was 133 % of control, the T/C (dose: 3.75 mg/kg/injection, schedule: Q01DX009 (ip), vehicle: saline with Tween-80) was 141 % of control and the survivor count (dose: 7.5 mg/kg/injection, schedule: Q01DX009 (ip), vehicle: saline with Tween-80) was 10 of 10. For the same compound, the survivor count (dose: 8.0 mg/kg/injection, schedule: Q01DX009 (ip), vehicle: saline with Tween-80) was 10 of 10, the survivor count (dose: 15.0 mg/kg/injection, schedule: Q01DX009 (ip), vehicle: saline with Tween-80) was 9 of 10 and the survivor count (dose: 16.0 mg/kg/injection, schedule: Q01DX009 (ip), vehicle: saline with Tween-80) was 10 of 10. For the same compound, the survivor count (dose: 32.0 mg/kg/injection, schedule: Q01DX009 (ip), vehicle: saline with Tween-80) was 10 of 10.

With CCN1/C(=C/C(C)=C/c2sc3ccc4ccccc4c3[n+]2CC)Sc2ccc3ccccc3c21 the survivor count (dose: 0.1 mg/kg/injection, schedule: Q01DX009 (ip), vehicle: saline with Tween-80) was 10 of 10, the survivor count (dose: 0.2 mg/kg/injection, schedule: Q01DX009 (ip), vehicle: saline with Tween-80) was 10 of 10 and the survivor count (dose: 0.4 mg/kg/injection, schedule: Q01DX009 (ip), vehicle: saline with Tween-80) was 10 of 10. For the same compound, the survivor count (dose: 0.8 mg/kg/injection, schedule: Q01DX009 (ip), vehicle: saline with Tween-80) was 7 of 10.

O=C(CCCCCCC(=O)ON1C(=O)CCC1=O)ON1C(=O)CCC1=O was tested, and the survivor count [3] was 4 of 10 and the survivor count [4] was 0 of 10.

CCOC(=O)c1ccc(NN=NCCF)cc1 was tested, and the T/C (dose: 6.25 mg/kg/injection, schedule: Q01DX009 (ip), vehicle: distilled water + Tween-80) was 130 % of control and the survivor count (dose: 50.0 mg/kg/injection, schedule: Q01DX009 (ip), vehicle: distilled water + Tween-80) was 4 of 10.

For CCCCC(NC(=O)OCc1ccccc1)C(=O)NC(C(=O)O)C(C)C (centres undefined) (Cbz-[Nle]-Val-OH; configuration not given here), the survivor count [2] was 7 of 10.

For CCOC(=O)N1CCN(CCCCCCOc2ccc(C3CCCCC3)cc2)CC1, the survivor count (dose: 6.25 mg/kg/injection, schedule: Q01DX009 (ip), vehicle: saline) was 10 of 10 and the survivor count (dose: 25.0 mg/kg/injection, schedule: Q01DX009 (ip), vehicle: saline) was 10 of 10.

With CC1=C2C(=CO[C@H](C)[C@H]2C)C(=O)C(C(=O)O)=C1O the survivor count (dose: 25.0 mg/kg/injection, schedule: Q01DX009 (ip), vehicle: Klucel (hydroxypropylcellulose) (HPC)) was 6 of 10 and the survivor count (dose: 50.0 mg/kg/injection, schedule: Q01DX009 (ip), vehicle: Klucel (hydroxypropylcellulose) (HPC)) was 0 of 10.

O=c1[nH]c(=O)n([C@H]2CCCO2)cc1F was tested, and the survivor count (dose: 400.0 mg/kg/injection, schedule: Q01DX009 (ip), vehicle: suspension in saline) was 10 of 10.

For O=C/C(Cl)=C(/Cl)C(=O)O, the survivor count (dose: 40.0 mg/kg/injection, schedule: Q01DX009 (ip), vehicle: saline with Tween-80) was 9 of 10.

In the case of CCCCCCCCCCCCCCC/C([O-])=N/[N+](C)(C)CC(C)O (centres undefined), the survivor count (dose: 100.0 mg/kg/injection, schedule: Q01DX001 (ip), vehicle: saline) is reported as 10 of 10, the survivor count (dose: 300.0 mg/kg/injection, schedule: Q01DX001 (ip), vehicle: saline) is reported as 10 of 10 and the survivor count (dose: 800.0 mg/kg/injection, schedule: Q01DX001 (ip), vehicle: saline with Tween-80) is reported as 0 of 10.

COc1ccc2[nH]c3c(c2c1)CCNC3CC(C)CCC=C(C)C (centres undefined) was tested, and the survivor count (dose: 200.0 mg/kg/injection, schedule: Q01DX009 (ip), vehicle: Klucel (hydroxypropylcellulose) (HPC)) was 0 of 10.

O=C(NC(Cc1ccc(I)cc1)C(=O)O)c1ccc(Br)cc1 (centres undefined) was tested, and the survivor count (dose: 400.0 mg/kg/injection, schedule: Q01DX009 (ip), vehicle: sodium bicarbonate) was 7 of 10.

With C=C(C)[C@H]1CN[C@H](C(=O)O)[C@H]1CC(=O)O the survivor count (dose: 50.0 mg/kg/injection, schedule: Q01DX009 (ip), vehicle: saline) was 5 of 10 and the survivor count [5] was 0 of 10.

In the case of CC(=O)N(C)C, the survivor count (dose: 3600.0 mg/kg/injection, schedule: Q01DX009 (ip), vehicle: saline) is reported as 6 of 10.

CN(C)CSCN(C)C was tested, and the survivor count (dose: 12.5 mg/kg/injection, schedule: Q01DX009 (ip), vehicle: saline with Tween-80) was 9 of 10.

In the case of CCc1nc(N)nc(N)c1-c1ccc(Cl)c(N=[N+]=[N-])c1, the T/C (dose: 100.0 mg/kg/injection, schedule: Q01DX009 (ip), vehicle: distilled water + Tween-80) is reported as 126 and 142 % of control [9 of 10 alive], the T/C (dose: 200.0 mg/kg/injection, schedule: Q01DX009 (ip), vehicle: distilled water + Tween-80) is reported as 140 % of control and the survivor count (dose: 400.0 mg/kg/injection, schedule: Q01DX009 (ip), vehicle: distilled water + Tween-80) is reported as 10 of 10 and 9 of 9.

With c1ccc2c(NCCCCCCNc3c4ccccc4nc4ccccc34)c3ccccc3nc2c1 the T/C (dose: 1.25 mg/kg/injection, schedule: Q01DX009 (ip), vehicle: Klucel (hydroxypropylcellulose) (HPC)) was 129 % of control, the T/C (dose: 1.58 mg/kg/injection, schedule: Q01DX009 (ip), vehicle: lactic acid) was 149 % of control and the T/C (dose: 2.37 mg/kg/injection, schedule: Q01DX009 (ip), vehicle: lactic acid) was 148 % of control. For the same compound, the T/C (dose: 3.56 mg/kg/injection, schedule: Q01DX009 (ip), vehicle: Klucel (hydroxypropylcellulose) (HPC)) was 149 % of control, the T/C (dose: 3.56 mg/kg/injection, schedule: Q01DX009 (ip), vehicle: lactic acid) was 149 % of control and the T/C (dose: 5.0 mg/kg/injection, schedule: Q01DX009 (ip), vehicle: water) was 125 % of control. The T/C (dose: 5.33 mg/kg/injection, schedule: Q01DX009 (ip), vehicle: lactic acid) was 129 % of control, the survivor count (dose: 8.0 mg/kg/injection, schedule: Q01DX009 (ip), vehicle: lactic acid) was 7 of 10 and the survivor count (dose: 10.0 mg/kg/injection, schedule: Q01DX009 (ip), vehicle: water) was 4 of 10. The survivor count (dose: 12.0 mg/kg/injection, schedule: Q01DX009 (ip), vehicle: lactic acid) was 0 of 10, the survivor count (dose: 18.0 mg/kg/injection, schedule: Q01DX009 (ip), vehicle: Klucel (hydroxypropylcellulose) (HPC)) was 10 of 10 and the survivor count (dose: 18.0 mg/kg/injection, schedule: Q01DX009 (ip), vehicle: lactic acid) was 3 of 10.

In the case of NNC(=O)c1ccncc1, the T/C (dose: 8.0 mg/kg/injection, schedule: Q01DX009 (ip), vehicle: saline) is reported as 130 % of control, the T/C (dose: 16.0 mg/kg/injection, schedule: Q01DX009 (ip), vehicle: saline) is reported as 145 % of control and the T/C (dose: 32.0 mg/kg/injection, schedule: Q01DX009 (ip), vehicle: saline) is reported as 128 % of control. The survivor count [6] was 3 of 10 and the survivor count [7] was 0 of 10.

For NC(N)=NS(=O)(=O)c1ccc(NCc2c3ccccc3nc3ccccc23)cc1, the T/C (dose: 12.5 mg/kg/injection, schedule: Q01DX009 (ip), vehicle: Klucel (hydroxypropylcellulose) (HPC)) was 144 % of control.

With O=C(CCl)Oc1ccc(-c2ccccc2)cc1Br the survivor count [4] was 6 of 10.

For CCC(NC(N)=O)C(CC)NC(N)=O (centres undefined), the survivor count [1] was 3 of 10 and the survivor count [3] was 0 of 10.

In the case of COc1ccc(OCC(O)CN2CCN(c3ccc(Cl)cc3)CC2)cc1 (centres undefined), the survivor count [3] is reported as 10 of 10 and the survivor count [4] is reported as 10 of 10.

In the case of O=C(Nc1cc(Cl)ccc1C(=O)O)c1cccc(C[n+]2ccccc2)c1, the survivor count [3] is reported as 10 of 10 and the survivor count [4] is reported as 10 of 10.

CCN(CC)CCOC(=O)Cc1cccc2c(=O)cc(-c3ccccc3)oc12 was tested, and the T/C [5] was 127 % of control, the survivor count [5] was 6 of 10 and the survivor count [6] was 2 of 10 and 6 of 10. The survivor count [7] was 0 of 10.

For C=CCOCC1CO1 (centres undefined), the survivor count [7] was 0 of 10 and 4 of 10.
